{"sequences": {"note": "By UniProt entry, the sequences of proteins in these tests, tags left out. Where a name states a change or a piece, a line headed by the entry shows the natural chain unless it says otherwise.", "UniProt P38035": "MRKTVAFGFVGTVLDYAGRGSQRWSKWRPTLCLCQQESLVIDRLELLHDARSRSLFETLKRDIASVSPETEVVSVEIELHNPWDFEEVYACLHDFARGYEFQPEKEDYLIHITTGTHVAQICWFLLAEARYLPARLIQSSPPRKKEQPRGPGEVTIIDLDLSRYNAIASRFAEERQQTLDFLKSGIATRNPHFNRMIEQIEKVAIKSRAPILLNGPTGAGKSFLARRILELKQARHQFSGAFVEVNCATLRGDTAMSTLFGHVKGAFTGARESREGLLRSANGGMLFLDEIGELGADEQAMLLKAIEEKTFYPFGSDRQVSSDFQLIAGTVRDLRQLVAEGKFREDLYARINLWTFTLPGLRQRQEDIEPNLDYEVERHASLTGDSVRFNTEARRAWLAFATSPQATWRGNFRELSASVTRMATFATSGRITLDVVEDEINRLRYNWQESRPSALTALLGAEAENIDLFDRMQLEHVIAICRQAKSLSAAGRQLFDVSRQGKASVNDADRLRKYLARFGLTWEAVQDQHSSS", "UniProt P37590": "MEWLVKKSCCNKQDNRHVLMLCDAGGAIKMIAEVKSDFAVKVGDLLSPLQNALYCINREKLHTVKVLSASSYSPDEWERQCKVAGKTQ", "UniProt P43533": "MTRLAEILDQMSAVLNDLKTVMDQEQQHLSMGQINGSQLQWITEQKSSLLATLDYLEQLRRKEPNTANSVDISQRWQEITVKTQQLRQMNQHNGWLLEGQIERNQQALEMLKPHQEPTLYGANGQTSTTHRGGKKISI", "UniProt P42616": "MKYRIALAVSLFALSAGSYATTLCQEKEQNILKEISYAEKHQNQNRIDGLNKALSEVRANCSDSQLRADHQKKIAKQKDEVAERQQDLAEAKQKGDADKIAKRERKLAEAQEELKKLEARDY", "UniProt P42593": "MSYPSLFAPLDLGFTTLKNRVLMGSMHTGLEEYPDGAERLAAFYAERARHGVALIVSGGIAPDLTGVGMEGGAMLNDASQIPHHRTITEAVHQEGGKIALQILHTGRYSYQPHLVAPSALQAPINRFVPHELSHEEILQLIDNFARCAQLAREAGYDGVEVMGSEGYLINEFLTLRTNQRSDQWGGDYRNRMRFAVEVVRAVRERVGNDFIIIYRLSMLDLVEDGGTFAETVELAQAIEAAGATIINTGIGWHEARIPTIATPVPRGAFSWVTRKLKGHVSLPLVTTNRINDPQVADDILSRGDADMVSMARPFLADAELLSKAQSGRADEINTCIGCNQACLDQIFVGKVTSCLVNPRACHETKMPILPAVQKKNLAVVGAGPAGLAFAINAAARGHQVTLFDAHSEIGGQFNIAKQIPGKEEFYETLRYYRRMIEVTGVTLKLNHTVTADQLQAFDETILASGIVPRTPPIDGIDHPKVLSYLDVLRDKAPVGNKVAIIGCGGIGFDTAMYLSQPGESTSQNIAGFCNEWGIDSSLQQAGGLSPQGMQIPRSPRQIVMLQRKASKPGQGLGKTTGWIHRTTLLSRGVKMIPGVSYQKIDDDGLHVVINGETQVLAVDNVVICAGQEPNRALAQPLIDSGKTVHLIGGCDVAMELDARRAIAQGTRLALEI", "UniProt P36929": "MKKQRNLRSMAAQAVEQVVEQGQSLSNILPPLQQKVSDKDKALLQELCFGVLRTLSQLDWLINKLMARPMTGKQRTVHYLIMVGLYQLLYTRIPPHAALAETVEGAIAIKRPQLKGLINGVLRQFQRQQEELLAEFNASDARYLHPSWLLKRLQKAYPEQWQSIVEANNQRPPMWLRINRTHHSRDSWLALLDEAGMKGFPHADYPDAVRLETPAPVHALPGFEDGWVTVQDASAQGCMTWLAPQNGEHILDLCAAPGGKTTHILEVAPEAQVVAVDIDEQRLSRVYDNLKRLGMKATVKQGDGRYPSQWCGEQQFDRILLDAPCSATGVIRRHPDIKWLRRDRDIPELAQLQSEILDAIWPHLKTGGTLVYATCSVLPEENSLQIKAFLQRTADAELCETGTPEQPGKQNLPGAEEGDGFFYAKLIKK", "UniProt P37650": "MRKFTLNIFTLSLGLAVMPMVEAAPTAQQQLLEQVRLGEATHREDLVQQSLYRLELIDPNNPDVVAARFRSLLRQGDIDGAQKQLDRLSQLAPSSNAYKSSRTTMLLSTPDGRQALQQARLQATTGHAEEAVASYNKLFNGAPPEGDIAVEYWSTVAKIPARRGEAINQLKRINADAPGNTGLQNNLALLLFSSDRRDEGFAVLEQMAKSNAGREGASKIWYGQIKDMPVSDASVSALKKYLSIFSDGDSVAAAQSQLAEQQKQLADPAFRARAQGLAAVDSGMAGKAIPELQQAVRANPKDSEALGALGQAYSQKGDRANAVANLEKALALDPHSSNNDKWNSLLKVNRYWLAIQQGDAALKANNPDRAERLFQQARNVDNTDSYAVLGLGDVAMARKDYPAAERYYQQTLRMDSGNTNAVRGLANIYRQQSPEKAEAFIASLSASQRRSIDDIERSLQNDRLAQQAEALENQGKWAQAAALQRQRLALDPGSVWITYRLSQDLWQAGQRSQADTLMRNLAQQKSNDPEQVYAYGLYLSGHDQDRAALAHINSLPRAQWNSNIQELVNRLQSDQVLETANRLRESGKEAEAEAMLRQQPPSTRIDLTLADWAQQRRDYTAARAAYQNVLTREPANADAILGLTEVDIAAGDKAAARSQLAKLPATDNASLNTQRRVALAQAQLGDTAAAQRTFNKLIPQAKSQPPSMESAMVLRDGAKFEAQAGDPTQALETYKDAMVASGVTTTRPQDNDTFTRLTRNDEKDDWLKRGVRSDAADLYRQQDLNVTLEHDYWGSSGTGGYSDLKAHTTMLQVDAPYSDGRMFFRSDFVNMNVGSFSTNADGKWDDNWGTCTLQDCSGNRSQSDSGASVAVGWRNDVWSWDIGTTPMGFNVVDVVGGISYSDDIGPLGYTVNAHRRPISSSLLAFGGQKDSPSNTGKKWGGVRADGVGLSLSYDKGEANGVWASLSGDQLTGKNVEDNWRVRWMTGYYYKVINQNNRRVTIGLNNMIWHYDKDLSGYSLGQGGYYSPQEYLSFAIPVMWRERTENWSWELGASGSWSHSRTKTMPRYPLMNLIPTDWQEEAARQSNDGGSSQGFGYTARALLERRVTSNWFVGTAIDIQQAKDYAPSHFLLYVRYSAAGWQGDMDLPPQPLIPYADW", "UniProt P37008": "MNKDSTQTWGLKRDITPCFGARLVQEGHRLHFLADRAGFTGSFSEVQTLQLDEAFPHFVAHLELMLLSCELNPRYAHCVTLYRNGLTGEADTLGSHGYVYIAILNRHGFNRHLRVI", "UniProt P33913": "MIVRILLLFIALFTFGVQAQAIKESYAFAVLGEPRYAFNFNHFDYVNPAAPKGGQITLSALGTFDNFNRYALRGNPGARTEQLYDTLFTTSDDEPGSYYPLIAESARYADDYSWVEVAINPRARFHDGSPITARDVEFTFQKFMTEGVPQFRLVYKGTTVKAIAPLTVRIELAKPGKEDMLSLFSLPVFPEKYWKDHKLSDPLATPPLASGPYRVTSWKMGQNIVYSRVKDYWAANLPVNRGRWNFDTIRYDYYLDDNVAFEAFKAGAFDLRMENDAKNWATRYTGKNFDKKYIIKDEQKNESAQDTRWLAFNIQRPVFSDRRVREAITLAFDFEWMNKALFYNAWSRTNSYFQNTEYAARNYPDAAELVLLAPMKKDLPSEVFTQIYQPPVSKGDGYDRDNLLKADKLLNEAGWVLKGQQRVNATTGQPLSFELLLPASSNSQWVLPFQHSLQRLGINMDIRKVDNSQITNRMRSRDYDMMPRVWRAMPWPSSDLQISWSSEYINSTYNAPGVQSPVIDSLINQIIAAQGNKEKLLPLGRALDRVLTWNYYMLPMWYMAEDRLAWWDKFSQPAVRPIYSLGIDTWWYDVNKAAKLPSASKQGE", "UniProt P37388": "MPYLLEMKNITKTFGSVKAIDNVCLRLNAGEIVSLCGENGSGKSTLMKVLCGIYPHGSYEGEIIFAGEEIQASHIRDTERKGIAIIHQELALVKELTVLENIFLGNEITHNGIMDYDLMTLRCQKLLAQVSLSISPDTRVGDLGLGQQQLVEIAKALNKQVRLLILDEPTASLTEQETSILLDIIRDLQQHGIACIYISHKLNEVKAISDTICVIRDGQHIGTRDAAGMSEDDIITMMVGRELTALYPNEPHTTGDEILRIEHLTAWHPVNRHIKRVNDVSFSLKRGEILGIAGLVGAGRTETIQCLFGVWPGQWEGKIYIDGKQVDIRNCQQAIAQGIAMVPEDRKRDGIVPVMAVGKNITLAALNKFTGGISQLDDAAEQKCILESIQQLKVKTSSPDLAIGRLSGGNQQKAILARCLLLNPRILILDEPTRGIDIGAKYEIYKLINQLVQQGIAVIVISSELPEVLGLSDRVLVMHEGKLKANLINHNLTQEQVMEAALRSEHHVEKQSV", "UniProt P37327": "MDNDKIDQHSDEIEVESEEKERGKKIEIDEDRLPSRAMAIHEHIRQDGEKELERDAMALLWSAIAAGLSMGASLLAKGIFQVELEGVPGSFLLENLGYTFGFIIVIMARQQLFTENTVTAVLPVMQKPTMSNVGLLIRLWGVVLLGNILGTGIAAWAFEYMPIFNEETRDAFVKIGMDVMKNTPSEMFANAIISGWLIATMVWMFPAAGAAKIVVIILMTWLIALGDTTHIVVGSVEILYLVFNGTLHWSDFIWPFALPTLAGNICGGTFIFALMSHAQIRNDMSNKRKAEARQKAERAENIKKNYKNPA", "UniProt P37049": "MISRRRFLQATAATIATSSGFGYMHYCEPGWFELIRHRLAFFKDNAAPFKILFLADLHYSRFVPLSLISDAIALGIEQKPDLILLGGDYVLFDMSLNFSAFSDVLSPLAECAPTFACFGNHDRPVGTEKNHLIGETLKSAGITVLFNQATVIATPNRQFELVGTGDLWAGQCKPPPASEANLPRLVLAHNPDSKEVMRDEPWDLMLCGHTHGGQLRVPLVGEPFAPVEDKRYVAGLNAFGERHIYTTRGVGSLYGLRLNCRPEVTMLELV"}, "source": "the supplement of paper PMC12819154", "about": "“High-throughput peptide-centric local stability assay extends protein–ligand identification to membrane proteins, tissues and bacteria” (Nature Structural & Molecular Biology, 2025)", "note": "The list shows a part of the results. Small differences around the control level are noise.", "data": [{"compound": "CC1(C)S[C@@H]2[C@H](NC(=O)[C@H](N)c3ccccc3)C(=O)N2[C@H]1C(=O)O [ampicillin]", "experiment": "log2 fold change of tryptic peptide abundance, ligand vs vehicle (limited proteolysis) (log2 ratio); higher = more trypsin-susceptible (destabilized)", "conditions": "ligand concentration: 10 uM; sample: E. coli crude lysate", "values": [{"target": "UniProt P38035 (peptide sequence: LIQSSPPR, peptide start residue: 136)", "log2 fold change": 0.464}, {"target": "UniProt P37590 (peptide sequence: HVLMLCDAGGAIK, peptide start residue: 17)", "log2 fold change": 0.104}, {"target": "UniProt P43533 (peptide sequence: RKEPNTANSVDISQR, peptide start residue: 61)", "log2 fold change": 0.0901}, {"target": "UniProt P42616 (peptide sequence: EISYAEKHQNQNR, peptide start residue: 34)", "log2 fold change": 0.111}, {"target": "UniProt P42593 (peptide sequence: TTGWIHR, peptide start residue: 575)", "log2 fold change": -0.411}, {"target": "UniProt P36929 (peptide sequence: ILLDAPCSATGVIRR, peptide start residue: 319)", "log2 fold change": 0.447}, {"target": "UniProt P37650 (peptide sequence: AQGLAAVDSGMAGK, peptide start residue: 274)", "log2 fold change": 0.44}, {"target": "UniProt P37008 (peptide sequence: DITPCFGAR, peptide start residue: 14)", "log2 fold change": 0.09}, {"target": "UniProt P33913 (peptide sequence: GDGYDRDNLLK, peptide start residue: 395)", "log2 fold change": -0.376}, {"target": "UniProt P37388 (peptide sequence: DGQHIGTR, peptide start residue: 217)", "log2 fold change": 0.124}, {"target": "UniProt P37327 (peptide sequence: AMAIHEHIR, peptide start residue: 37)", "log2 fold change": -0.32}, {"target": "UniProt P37049 (peptide sequence: NHLIGETLK, peptide start residue: 130)", "log2 fold change": -0.00135}]}]}
